Source: patent US9670223B2, “Compounds with super-aspirin effects” (SOLVOTRIN THERAPEUTICS LTD., priority 2011, dated 2017)
At least one compound was matched to its structure with a doubt left.

Columns and labels:
[1] = tested on: platelet rich plasma (PRP); conditions: collagen (5 mg/ml), values marked † From Reference 7; cited from earlier work
[2] = tested on: platelet esterases (pNPA hydrolysis in WP); assay type: biochemical, human; conditions: physostigmine (100 μM in method)
Protocol: WP, PRP, PPP or lysed WP and 50 mM TrisHCl pH7.4 were incubated on a 96 well plate at 37° C. for 30 min. PNA at a final concentration of 3 mM was added to the plate and the change in absorbance at 405 nm was measured over a period of 10 min.
NPA hydrolyse activity could be due to CE (EC 3.1.1.1), BuChE, acetylcholinesterase (AChE, EC 3.1.1.7) or paraoxanase/arylesterase (PON, EC 3.1.8.1). To identify which esterases were involved in the hydrolysis of PNA, various inhibitors were incubated with the WP, PRP, PPP or lysed WP and 50 mM TrisHCl pH7.4 for 30 min at 37° C. prior to the addition of the PNA and the measurement of the change in absorbance at 405 nm. Physostigmine (100 μM), a cholinesterase inhibitor was used to check if BuChE/AChE played a role in the hydrolysis of PNA. […] PMSF (10-100 μM) was used to determine if serine proteases played any part in the hydrolysis of PNA by platelets. EDTA a calcium chelator was used to investigate the role played by PON esterases. BNPP a CE inhibitor of was used to investigate if carboxylesterases played a role in hydrolysis of PNA by platelets.

Structure (SMILES) | IC50 (PRP, 95% CI) [1] | reduction in pNPA hydrolyse activity of platelets [2] [%]
CC(=O)Oc1ccccc1C(=O)OC1COC2C(OC(=O)c3ccccc3O)COC12 (centres unmarked) [ST0701, isosorbide-2-aspirinate-5-salicylate] | 21, 17.2-23.9 μM | 
CNC(=O)Oc1ccc2c(c1)[C@]1(C)CCN(C)[C@@H]1N2C [Physostigmine, physostigmine] |  | 25
